Laboratory results: the supplement of paper PMC6078165
The reference is the same well before dosing, and untreated signal decays as well.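 Labels refer to human fibroblasts, largely primary: uterine (C12385, HUF), lung (H6013), bone (Hs27A), adrenal (HADF), skin (WS1), plus mammary HMF and breast cancer-associated Hs343T. Cancer lines are basal-like or mesenchymal-like triple-negative breast cancer. The paper counts as hits responses shifting over 3x the replicate standard deviation. The tissue of the other fibroblasts is not given here.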

System: BT20
Experiment: relative JC-1 red fluorescence (viability) vs pre-drug, coculture with fibroblast (fraction); higher = more viable cancer cells
Method: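 JC-1 labelled TNBC cells cocultured 1:1 (1,500 cells each) with CellTrace Violet stained primary or stromal fibroblasts in 384-well plates in FluoroBrite medium, treated with one of 42 anticancer drugs at 0.1, 1, 10 or 100 uM. JC-1 red fluorescence (mitochondrial integrity in cancer cells only) was read by plate reader every 8 h for 72 h. Values are normalised to each well's pre-drug value. The stock of one drug was tenfold lower, so its dose labels may be too high.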

CC/C(=C(\c1ccccc1)c1ccc(OCCN(C)C)cc1)c1ccccc1 [Tamoxifen]
relative JC-1 red fluorescence
Details	8 h	16 h	24 h	32 h	40 h	48 h	56 h	64 h	72 h
0.1 µM, coculture fibroblast: C12385	0.9381	0.812	0.832	0.779	0.725	0.708	0.681	0.678	0.667
0.1 µM, coculture fibroblast: H6013	0.963	0.849	0.8078	0.762	0.709	0.685	0.673	0.656	0.628
0.1 µM, coculture fibroblast: H6019	0.917	0.859	0.842	0.807	0.766	0.744	0.707	0.662	0.632
0.1 µM, coculture fibroblast: H6076	0.961	0.93333	0.858	0.823	0.78	0.748	0.728	0.721	0.702
0.1 µM, coculture fibroblast: H6231	0.731	0.915	0.77	0.703	0.65	0.604	0.57	0.54	0.516
0.1 µM, coculture fibroblast: HADF	0.867	0.883	0.808	0.76	0.698	0.651	0.623	0.598	0.567
0.1 µM, coculture fibroblast: HCFa	0.933	0.831	0.781	0.709	0.654	0.611	0.576	0.54	0.494
0.1 µM, coculture fibroblast: HCPF	0.934	0.893	0.797	0.742	0.711	0.673	0.63	0.628	0.589
0.1 µM, coculture fibroblast: HHSteC	0.96	0.855	0.837	0.773	0.722	0.686	0.655	0.631	0.59
0.1 µM, coculture fibroblast: HMF	0.856	0.877	0.797	0.752	0.712	0.674	0.641	0.618	0.5974
0.1 µM, coculture fibroblast: HPFa	0.943	0.864	0.849	0.773	0.742	0.686	0.661	0.626	0.561
0.1 µM, coculture fibroblast: HUF	0.9157	0.8006	0.7581	0.679	0.628	0.5812	0.5638	0.546	0.533
0.1 µM, coculture fibroblast: Hs5	0.968	0.8897	0.8264	0.779	0.742	0.709	0.68	0.65	0.612
0.1 µM, coculture fibroblast: Hs27A	0.763	0.807	0.864	0.837	0.855	0.862	0.93	0.938	0.867
0.1 µM, coculture fibroblast: Hs343T	0.845	0.857	0.76	0.719	0.6785	0.6349	0.5904	0.575	0.548
0.1 µM, coculture fibroblast: WS1	0.87861	0.7375	0.716	0.651	0.596	0.575	0.547	0.536	0.524
1 µM, coculture fibroblast: C12385	0.895	0.813	0.776	0.72	0.673	–	–	–	–
1 µM, coculture fibroblast: H6013	0.893	0.877	0.864	0.813	0.777	–	–	–	–
1 µM, coculture fibroblast: H6019	0.865	0.8284	0.853	0.808	0.774	–	–	–	–
1 µM, coculture fibroblast: H6076	0.952	0.9019	0.842	0.815	0.787	–	–	–	–
1 µM, coculture fibroblast: H6231	0.737	0.892	0.777	0.731	0.681	–	–	–	–
1 µM, coculture fibroblast: HADF	0.912	0.923	0.924	0.871	0.848	–	–	–	–
1 µM, coculture fibroblast: HCFa	0.93	0.875	0.866	0.813	0.77	–	–	–	–
1 µM, coculture fibroblast: HCPF	0.911	0.826	0.793	0.756	0.728	–	–	–	–
1 µM, coculture fibroblast: HHSteC	0.941	0.868	0.89	0.819	–	–	–	–	–
1 µM, coculture fibroblast: HMF	0.981	0.822	0.748	0.689	–	–	–	–	–
1 µM, coculture fibroblast: HPFa	0.851	0.917	0.8894	0.7932	–	–	–	–	–
1 µM, coculture fibroblast: HUF	0.939	0.845	0.816	0.742	–	–	–	–	–
1 µM, coculture fibroblast: Hs5	0.932	0.921	0.871	0.8185	–	–	–	–	–
1 µM, coculture fibroblast: Hs27A	0.835	0.896	0.916	0.8937	–	–	–	–	–
1 µM, coculture fibroblast: Hs343T	0.919	0.834	0.804	0.753	–	–	–	–	–
1 µM, coculture fibroblast: WS1	0.858	0.739	0.711	0.644	–	–	–	–	–
